# Only a part is listed here, and it is no random draw. At the low end of the ranking, values are background and their order means little. This is one part of the list.
# What was measured:
# Assay in all cases: SELEX-seq (CSI, HT-SELEX, round 3)
# Conditions in all cases: SELEX-seq: 1x PBS (10 mM phosphate, 137 mM NaCl, 2.7 mM KCl) pH 7.6, 2.5 mM DTT, 50 ng/ul poly dI-dC, 0.1% BSA, 50 nM biotinylated bZIP (1:3 with partner for …); high values mean tight binding; double strand, one strand shown
# BATF + NFIL3 = system: T1, BATF + NFIL3
# T1 sequence 1: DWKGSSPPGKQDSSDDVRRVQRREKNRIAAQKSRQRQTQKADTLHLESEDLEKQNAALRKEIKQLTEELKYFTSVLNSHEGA
# T1 sequence 2: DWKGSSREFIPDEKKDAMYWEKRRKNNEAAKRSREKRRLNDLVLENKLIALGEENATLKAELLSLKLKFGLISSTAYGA
# FOSL1 + CEBPE = system: T2, FOSL1 + CEBPE
# T2 sequence 1: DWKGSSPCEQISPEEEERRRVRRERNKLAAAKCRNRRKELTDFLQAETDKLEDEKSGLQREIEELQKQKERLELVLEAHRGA
# T2 sequence 2: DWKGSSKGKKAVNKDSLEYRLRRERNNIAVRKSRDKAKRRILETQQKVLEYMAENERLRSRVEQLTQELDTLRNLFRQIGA
# FOSL1 + FOSL1 = system: T3, FOSL1 + FOSL1
# T3 sequence 1: T2 sequence 1
# T3 sequence 2: T2 sequence 1
# FOS + CEBPE = system: FOS + CEBPE
# FOS + BATF = system: FOS + BATF
# FOS + BATF2 = system: FOS + BATF2
# ATF5 + BATF = system: T4, ATF5 + BATF
# T4 sequence 1: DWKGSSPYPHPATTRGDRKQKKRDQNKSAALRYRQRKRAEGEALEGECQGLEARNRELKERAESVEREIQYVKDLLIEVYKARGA
# T4 sequence 2: T1 sequence 1
# ATF5 + CREB3L1 = system: T5, ATF5 + CREB3L1
# T5 sequence 1: T4 sequence 1
# T5 sequence 2: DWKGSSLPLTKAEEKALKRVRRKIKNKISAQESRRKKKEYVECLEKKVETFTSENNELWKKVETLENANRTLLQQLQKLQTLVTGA
# ATF5 + BATF2 = system: T6, ATF5 + BATF2
# T6 sequence 1: T4 sequence 1
# T6 sequence 2: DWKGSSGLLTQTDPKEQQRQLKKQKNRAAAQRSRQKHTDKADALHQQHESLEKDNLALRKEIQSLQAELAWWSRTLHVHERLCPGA
# ATF5 + CREB3L3 = system: T7, ATF5 + CREB3L3
# T7 sequence 1: T4 sequence 1
# T7 sequence 2: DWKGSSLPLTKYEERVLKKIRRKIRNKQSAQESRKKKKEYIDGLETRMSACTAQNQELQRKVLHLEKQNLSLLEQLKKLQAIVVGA
# NFE2 + NFE2 = system: T8, NFE2 + NFE2
# T8 sequence 1: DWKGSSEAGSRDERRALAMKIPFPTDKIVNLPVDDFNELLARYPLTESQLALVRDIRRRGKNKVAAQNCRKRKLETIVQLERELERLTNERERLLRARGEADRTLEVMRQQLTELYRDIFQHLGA
# T8 sequence 2: T8 sequence 1
# NFE2 + MAFG = system: NFE2 + MAFG
# NFE2L1 + NFE2L1 = system: NFE2L1 + NFE2L1
# HLF + HLF = system: T9, HLF + HLF
# T9 sequence 1: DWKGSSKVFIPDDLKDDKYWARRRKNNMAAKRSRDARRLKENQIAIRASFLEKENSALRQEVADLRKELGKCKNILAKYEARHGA
# T9 sequence 2: T9 sequence 1
# FOS + FOSL1 = system: FOS + FOSL1
# FOS + NFE2L1 = system: FOS + NFE2L1
# FOS + CREB3L3 = system: FOS + CREB3L3
# NFE2L1 + MAFG = system: NFE2L1 + MAFG
# ATF5 + FOS = system: ATF5 + FOS
# FOS + CREB3 = system: FOS + CREB3
sequence,measurement,setting,value
ATGACGGAAT,binding signal (relative CSI intensity (max = 1)),BATF + NFIL3,-0.0417
same,binding signal (relative CSI intensity (max = 1)),FOSL1 + CEBPE,-0.00422
same,binding signal (relative CSI intensity (max = 1)),FOSL1 + FOSL1,-0.0038
same,binding signal (relative CSI intensity (max = 1)),FOS + CEBPE,0.000134
same,binding signal (relative CSI intensity (max = 1)),FOS + BATF,8.02e-05
same,binding signal (relative CSI intensity (max = 1)),FOS + BATF2,0.000862
same,binding signal (relative CSI intensity (max = 1)),ATF5 + BATF,-0.00124
same,binding signal (relative CSI intensity (max = 1)),ATF5 + CREB3L1,0.000706
same,binding signal (relative CSI intensity (max = 1)),ATF5 + BATF2,-0.0046
same,binding signal (relative CSI intensity (max = 1)),ATF5 + CREB3L3,0.000386
same,binding signal (relative CSI intensity (max = 1)),NFE2 + NFE2,0.000368
same,binding signal (relative CSI intensity (max = 1)),NFE2 + MAFG,0.000874
same,binding signal (relative CSI intensity (max = 1)),NFE2L1 + NFE2L1,0.0005
same,binding signal (relative CSI intensity (max = 1)),HLF + HLF,8.61e-05
CCTGACGTCA,binding signal (relative CSI intensity (max = 1)),BATF + NFIL3,-0.0141
same,binding signal (relative CSI intensity (max = 1)),FOS + CEBPE,0.000612
same,binding signal (relative CSI intensity (max = 1)),FOS + FOSL1,-0.0195
same,binding signal (relative CSI intensity (max = 1)),FOS + NFE2L1,-0.00103
same,binding signal (relative CSI intensity (max = 1)),FOS + BATF2,0.00375
same,binding signal (relative CSI intensity (max = 1)),FOS + CREB3L3,-0.000103
same,binding signal (relative CSI intensity (max = 1)),NFE2 + NFE2,0.000777
same,binding signal (relative CSI intensity (max = 1)),NFE2L1 + NFE2L1,-0.000196
same,binding signal (relative CSI intensity (max = 1)),NFE2L1 + MAFG,-0.00096
same,binding signal (relative CSI intensity (max = 1)),HLF + HLF,0.000268
ATGACGCAAT,binding signal (relative CSI intensity (max = 1)),ATF5 + CREB3L1,0.000994
same,binding signal (relative CSI intensity (max = 1)),ATF5 + CREB3L3,0.000466
same,binding signal (relative CSI intensity (max = 1)),NFE2 + NFE2,0.0016
same,binding signal (relative CSI intensity (max = 1)),NFE2L1 + NFE2L1,0.000917
ATGATGCAAT,binding signal (relative CSI intensity (max = 1)),FOSL1 + FOSL1,0.00963
same,binding signal (relative CSI intensity (max = 1)),FOS + CEBPE,0.000865
same,binding signal (relative CSI intensity (max = 1)),FOS + BATF,0.000657
same,binding signal (relative CSI intensity (max = 1)),FOS + FOSL1,-0.0244
same,binding signal (relative CSI intensity (max = 1)),FOS + BATF2,0.000156
same,binding signal (relative CSI intensity (max = 1)),ATF5 + FOS,-0.0141
same,binding signal (relative CSI intensity (max = 1)),ATF5 + CREB3L3,0.000518
same,binding signal (relative CSI intensity (max = 1)),NFE2 + NFE2,0.000529
same,binding signal (relative CSI intensity (max = 1)),NFE2L1 + NFE2L1,0.000218
ATGACGTAAT,binding signal (relative CSI intensity (max = 1)),FOS + CEBPE,0.000404
same,binding signal (relative CSI intensity (max = 1)),FOS + BATF2,0.0531
same,binding signal (relative CSI intensity (max = 1)),FOS + CREB3,-0.00861
same,binding signal (relative CSI intensity (max = 1)),ATF5 + BATF,0.0375
same,binding signal (relative CSI intensity (max = 1)),NFE2 + NFE2,0.00452
same,binding signal (relative CSI intensity (max = 1)),NFE2L1 + NFE2L1,0.000859
same,binding signal (relative CSI intensity (max = 1)),NFE2L1 + MAFG,0.0021
ATGACGTCAT,binding signal (relative CSI intensity (max = 1)),FOS + BATF2,1
same,binding signal (relative CSI intensity (max = 1)),ATF5 + BATF,0.864
same,binding signal (relative CSI intensity (max = 1)),NFE2 + NFE2,0.112
same,binding signal (relative CSI intensity (max = 1)),HLF + HLF,0.205

# 2 entries drawn at random from those above, as already listed:
sequence,measurement,setting,value
ATGACGGAAT,binding signal (relative CSI intensity (max = 1)),NFE2 + MAFG,0.000874
CCTGACGTCA,binding signal (relative CSI intensity (max = 1)),FOS + BATF2,0.00375

# From PMC5349851
